The values below come from publication PMC10920667.

By UniProt entry, the sequences of proteins in these tests, tags left out.
UniProt P01106: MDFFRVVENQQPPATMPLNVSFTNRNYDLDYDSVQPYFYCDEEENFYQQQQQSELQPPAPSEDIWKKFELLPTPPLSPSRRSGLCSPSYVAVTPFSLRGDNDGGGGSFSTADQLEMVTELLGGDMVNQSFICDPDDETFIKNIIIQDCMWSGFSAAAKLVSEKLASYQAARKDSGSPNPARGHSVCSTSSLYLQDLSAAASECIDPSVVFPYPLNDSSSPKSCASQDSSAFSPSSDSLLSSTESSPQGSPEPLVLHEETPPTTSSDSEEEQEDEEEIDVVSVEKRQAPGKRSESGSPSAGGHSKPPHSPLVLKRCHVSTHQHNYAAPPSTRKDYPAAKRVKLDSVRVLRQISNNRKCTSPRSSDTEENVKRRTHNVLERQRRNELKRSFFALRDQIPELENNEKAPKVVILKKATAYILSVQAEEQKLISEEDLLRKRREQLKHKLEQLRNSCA
UniProt Q969H0: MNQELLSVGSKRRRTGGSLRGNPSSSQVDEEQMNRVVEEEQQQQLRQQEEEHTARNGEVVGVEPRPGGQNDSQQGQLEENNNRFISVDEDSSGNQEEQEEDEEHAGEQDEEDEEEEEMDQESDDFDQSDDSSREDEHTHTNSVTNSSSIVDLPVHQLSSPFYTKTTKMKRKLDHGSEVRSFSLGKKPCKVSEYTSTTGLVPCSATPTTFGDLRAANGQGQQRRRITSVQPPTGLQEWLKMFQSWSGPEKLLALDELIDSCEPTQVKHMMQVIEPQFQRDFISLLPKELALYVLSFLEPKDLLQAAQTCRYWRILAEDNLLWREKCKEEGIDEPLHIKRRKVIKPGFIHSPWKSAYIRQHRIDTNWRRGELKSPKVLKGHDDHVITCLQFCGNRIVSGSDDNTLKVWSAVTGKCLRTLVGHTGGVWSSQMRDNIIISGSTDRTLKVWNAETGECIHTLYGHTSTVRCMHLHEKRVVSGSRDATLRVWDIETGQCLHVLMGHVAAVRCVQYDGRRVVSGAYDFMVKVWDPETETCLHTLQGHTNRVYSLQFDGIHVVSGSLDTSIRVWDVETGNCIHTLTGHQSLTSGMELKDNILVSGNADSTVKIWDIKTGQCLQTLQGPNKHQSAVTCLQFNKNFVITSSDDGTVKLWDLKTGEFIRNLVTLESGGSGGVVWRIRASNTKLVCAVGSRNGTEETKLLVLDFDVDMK

Test [1] addresses c-Myc (human (endogenous in H1299)) (UniProt P01106). As to the kind of experiment: co-IP; endogenous proteins precipitated from H1299 cells with CPT1A or c-Myc antibody, western blot; also in H1299-shNC/shCPT1A cells (CPT1A knock-down; siFBXW7 or control siRNA). On the technique in general: Immunoblotting shows a protein as a band on a membrane.
The target of test [2] is T1, Carnitine palmitoyl transferase 1A (human (endogenous in H1299)) (UniProt P50416).
T1 sequence: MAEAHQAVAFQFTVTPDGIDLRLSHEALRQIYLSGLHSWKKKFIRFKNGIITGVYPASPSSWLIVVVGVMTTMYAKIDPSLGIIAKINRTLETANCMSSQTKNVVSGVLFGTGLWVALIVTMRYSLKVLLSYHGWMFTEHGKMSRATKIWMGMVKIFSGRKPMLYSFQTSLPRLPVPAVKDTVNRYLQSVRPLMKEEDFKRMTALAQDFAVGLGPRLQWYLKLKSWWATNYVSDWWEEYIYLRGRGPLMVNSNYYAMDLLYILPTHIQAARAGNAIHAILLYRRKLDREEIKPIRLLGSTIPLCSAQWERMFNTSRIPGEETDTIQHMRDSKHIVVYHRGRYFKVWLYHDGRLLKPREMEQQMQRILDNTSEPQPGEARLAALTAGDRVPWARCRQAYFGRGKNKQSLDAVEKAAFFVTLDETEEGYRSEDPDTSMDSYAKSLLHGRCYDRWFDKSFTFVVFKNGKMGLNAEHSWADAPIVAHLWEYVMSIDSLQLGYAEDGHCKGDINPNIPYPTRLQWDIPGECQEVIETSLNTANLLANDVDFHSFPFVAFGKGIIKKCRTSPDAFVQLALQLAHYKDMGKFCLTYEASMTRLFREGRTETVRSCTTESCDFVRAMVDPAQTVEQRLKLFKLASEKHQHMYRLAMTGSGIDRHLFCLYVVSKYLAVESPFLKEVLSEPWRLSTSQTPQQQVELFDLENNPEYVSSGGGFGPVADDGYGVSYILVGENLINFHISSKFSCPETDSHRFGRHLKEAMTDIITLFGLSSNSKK
Described as above.

No constants are given. Whether binding was seen depends on the method and setting. In cells and extracts the contact can be indirect. Some entries that bind do so weakly or less than the wild type.

As to FBXW7 (from UniProt Q969H0 1-707), the binding entry in test [1] was “binds”.
As for c-Myc (from UniProt P01106 1-454), the binding entry in test [2] was “binds”.
